In paper PMC3858372, “Cell Cycle-Dependent Turnover of 5-Hydroxymethyl Cytosine in Mouse Embryonic Stem Cells”:
The comparison behind a weaker result is the experiment's own reference, which may not be listed here. Tags and fusion partners may be left off the protein sequences shown. For part of these data: The exact form of at least one protein or probe is not confirmed. For part of these data: At least one verdict was read from the data and is not stated in words by the source.

What was measured:
[1] = target: T1, Uhrf1 (Np95) SRA domain (mouse) (UniProt Q8VDF2); assay: competition with a labelled probe; details: 5 uM SRA, 1 uM 32P-CG/5mCG, EMSA/competition: 25 mM HEPES-NaOH pH 7.4, 0.1 M NaCl, 0.1 mM TCEP, 250 ng poly(dI-dC)(dI-dC), 4 C, 30 min, 7.5% native PAGE in 1x TBE, recombinant protein, residues 405-613
T1 sequence (looked up): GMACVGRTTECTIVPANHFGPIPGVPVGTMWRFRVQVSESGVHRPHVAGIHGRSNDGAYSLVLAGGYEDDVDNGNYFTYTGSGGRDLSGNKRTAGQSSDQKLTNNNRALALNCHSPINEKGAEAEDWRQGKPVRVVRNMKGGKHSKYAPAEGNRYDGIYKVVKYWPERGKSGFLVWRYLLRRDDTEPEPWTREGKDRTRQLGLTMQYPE

[2] = target: T1, Uhrf1 (Np95) SRA domain (mouse); assay: EMSA; details: 0-3 uM SRA, 1 uM DNA, 250 ng poly(dI-dC), affinity lower than for CG/5mCG; 5hmC at position 7 of strand 2 (GCAATCXGGTAG, X = 5hmC); EMSA/competition: 25 mM HEPES-NaOH pH 7.4, 0.1 M NaCl, 0.1 mM TCEP, 250 ng poly(dI-dC)(dI-dC), 4 C, 30 min; 7.5% native PAGE in 1x TBE; recombinant protein; residues 405-613

CTACCGGATTGC (double strand) [CG/5hmCG (hemi-hydroxymethylated 12-bp)]
binding result ([1]; 0-10 uM unlabelled CG/5hmCG, excess could not effectively compete, 5hmC at position 7 of strand 2 (GCAATCXGGTAG, X = 5hmC)): binds more weakly
binding result [2]: binds more weakly

CTACCGGATTGC (double strand) [CG/5mCG (hemi-methylated 12-bp)]
binding result ([1]; 0-10 uM unlabelled CG/5mCG, 5mC at position 7 of strand 2 (GCAATCXGGTAG, X = 5mC)): binds
